The values below come from PMC2860244.

Amino acid sequences for entries named in this document (tags omitted).
UniProt P20263: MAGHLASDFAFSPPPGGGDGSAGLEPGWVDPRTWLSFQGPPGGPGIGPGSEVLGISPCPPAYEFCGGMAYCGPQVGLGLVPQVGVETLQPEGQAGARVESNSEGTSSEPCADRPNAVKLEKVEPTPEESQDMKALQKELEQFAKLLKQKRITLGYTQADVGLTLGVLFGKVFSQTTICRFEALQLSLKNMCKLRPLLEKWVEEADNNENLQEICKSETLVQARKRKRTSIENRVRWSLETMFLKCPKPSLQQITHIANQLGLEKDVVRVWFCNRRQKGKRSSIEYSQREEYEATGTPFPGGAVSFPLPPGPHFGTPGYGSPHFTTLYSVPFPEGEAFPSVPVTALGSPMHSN
UniProt P11103: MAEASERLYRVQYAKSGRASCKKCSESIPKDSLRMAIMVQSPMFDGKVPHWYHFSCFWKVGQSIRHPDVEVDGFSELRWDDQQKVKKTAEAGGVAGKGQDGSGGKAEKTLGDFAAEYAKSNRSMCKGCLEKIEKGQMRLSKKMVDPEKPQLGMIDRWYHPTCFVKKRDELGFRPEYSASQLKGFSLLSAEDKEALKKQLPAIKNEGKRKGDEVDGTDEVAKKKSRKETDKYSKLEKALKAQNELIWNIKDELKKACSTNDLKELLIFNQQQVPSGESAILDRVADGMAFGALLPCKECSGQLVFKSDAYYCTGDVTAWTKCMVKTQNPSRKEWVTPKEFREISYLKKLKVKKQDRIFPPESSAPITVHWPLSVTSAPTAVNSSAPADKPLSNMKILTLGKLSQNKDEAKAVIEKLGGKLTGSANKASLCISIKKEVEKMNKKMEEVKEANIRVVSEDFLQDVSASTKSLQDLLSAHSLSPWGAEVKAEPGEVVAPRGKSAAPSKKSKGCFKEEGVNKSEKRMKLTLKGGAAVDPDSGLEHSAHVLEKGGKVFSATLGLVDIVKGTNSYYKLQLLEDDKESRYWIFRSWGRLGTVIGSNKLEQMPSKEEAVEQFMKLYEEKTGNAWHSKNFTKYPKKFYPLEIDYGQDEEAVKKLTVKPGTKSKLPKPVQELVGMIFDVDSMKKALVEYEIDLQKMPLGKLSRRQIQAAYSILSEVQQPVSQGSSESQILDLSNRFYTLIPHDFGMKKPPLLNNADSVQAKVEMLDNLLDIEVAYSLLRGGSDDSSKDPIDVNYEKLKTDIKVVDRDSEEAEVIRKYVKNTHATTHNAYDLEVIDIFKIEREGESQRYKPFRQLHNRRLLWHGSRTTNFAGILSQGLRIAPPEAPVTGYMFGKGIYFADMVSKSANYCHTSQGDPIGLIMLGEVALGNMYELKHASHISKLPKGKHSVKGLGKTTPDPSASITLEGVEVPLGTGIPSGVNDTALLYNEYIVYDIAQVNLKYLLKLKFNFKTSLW

For this test, the target named is endogenous Oct4 (mouse (endogenous in E14 ESCs)) (UniProt P20263). As to the kind of experiment: co-IP; Oct4 immunoprecipitated with an Oct4 antibody on Dynal-Protein G beads, in the presence or absence of benzonase; Western blot for Parp1.

Results are given in words; binding and its absence hold for the method and conditions named. Binding seen in cells or lysates may run through a third protein. Some results given as binding are weak or reduced against the parent protein; the word gives no strength.

Turning to Parp1 (from UniProt P11103 1-1013), the binding result is reported as “binds”.
